Measured values as given in PubChem BioAssay AID2685 (National Center for Advancing Translational Sciences (NCATS), 2010).
This is one part of the list. These are further read-outs of the screen, such as a control signal, another cell line or another target. No call is given for them. Compounds called inactive in the main read-out are mostly missing here. The note in brackets gives the kind of curve behind each potency; many fits are weak.

Assay: qHTS Assay for Lipid Storage Modulators in Drosophila S3 Cells;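 on cell number change: cells counted by Cell Tracker Red CMTPX staining in the red channel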
Conditions: BODIPY lipid droplet fluorescence, 18-24 h; for cell number change: measured here: cell count max response, cells fed with added oleic acid
Procedure, shortened: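 Laser-scanning cytometry quantifies lipid droplet accumulation (500–530 nm total intensity; droplet/cell object ratio) in oleic acid-fed (400 uM added) Drosophila S3 cells treated with a concentration series. 20 uM Triacsin C defined 100% inhibition.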

[1] = measured here: cell number channel AC50, cells fed with added oleic acid
[2] = measured here: lipid fluorescence (Fed channel) AC50, cells fed with added oleic acid

| SMILES | cell number change [%] | AC50 [1] | AC50 [2] |
| --- | --- | --- | --- |
| Cc1cccc(-n2c(C)cc(C=C(C#N)C#N)c2C)c1 | 48.2 | 29.1 µM [rising, single point] | – |
| Cc1cc(OC(C)C(=O)Nc2ccc(S(=O)(=O)Nc3onc(C)c3C)cc2)cc(C)c1Cl (centres undefined) | -0.99 | – | 29.1 µM [falling, partial curve, poor fit] |
| CC1Cc2nc(SCC(=O)Nc3ccc4c(c3)OCO4)n(Cc3ccccc3)c(=O)c2S1 (centres undefined) | – | – | 1.16 µM [rising, full curve] |
| COc1ccccc1CNC(=O)CCN=C1NS(=O)(=O)c2ccccc21 | -43.6 | 13 µM [falling, partial curve] | 0.731 µM [falling, single point] |
| COc1ccc(N2C(=O)CCC2(C#N)c2ccc(Br)cc2)cc1 (centres undefined) | 18.3 | – | – |
| COc1ccc(C(CNC(=O)CSc2ccc(Br)cc2C)N2CCOCC2)cc1 (centres undefined) | 35.3 | 0.461 µM [rising, full curve] | – |
| COc1ccc(C(CCNCc2ccc(N(C)C)cc2)C(C)C)cc1 (centres undefined) | -62.5 | 18.4 µM [falling, single point] | 2.06 µM [rising, single point] |
| COc1cc(/C=N/N=C2\CC3CCC2(C)C3(C)C)ccc1O (centres undefined) | -49.4 | 13 µM [falling, partial curve, poor fit] | 20.6 µM [falling, single point] |
| CC(C)C(NC(=O)CCNC(=O)c1ccccc1Cl)c1nc2ccccc2[nH]1 (centres undefined) | 13.4 | – | 5.17 µM [rising, full curve] |
| CC(C)(C)C1CCc2c(sc(NC(=O)c3cc(C4CC4)on3)c2C#N)C1 (centres undefined) | -3.4 | – | – |
| O=[N+]([O-])c1ccccc1Oc1ccc(Cl)c2cccnc12 | 35.2 | – | – |
| CCOc1cc2nc(-c3ccc(OC)c(OC)c3)nc(N3CC(C)OC(C)C3)c2cc1OC (centres undefined) | -25.7 | – | – |
| CN(C)Cc1c(O)ccc2occ(C(=O)c3ccccc3)c12 | -3.79 | – | 29.1 µM [falling, single point] |
| O=C(Nc1ccccc1Cl)c1cccc(NC(=O)c2cccs2)c1 | -18.8 | – | 29.1 µM [falling, single point] |
| CC(C)N(Cc1ccccc1)C(=O)CCS(=O)(=O)c1ccc2c(c1)oc(=O)n2C | 7.76 | – | 3.26 µM [falling, full curve, poor fit] |
| O=C(O)c1ccc2c(c1)S(=O)(=O)c1cc(Cl)ccc1C2=O | -45.1 | 29.1 µM [falling, single point] | 29.1 µM [falling, single point] |
| COc1ccc(CCNC(=O)c2ccc(-c3cccc([N+](=O)[O-])c3)o2)cc1OC | -46.5 | 18.4 µM [falling, single point] | – |
| Cc1ccc2c(c1)N(CC(=O)N1CCCCC1c1cccnc1)C(=O)CO2 (centres undefined) | 12.1 | – | 0.092 µM [rising, full curve, poor fit] |
| O=C1C2C(c3ccccc3)C=CC(c3ccccc3)C2C(=O)N1CCCO (centres undefined) | -6.75 | – | – |
| COc1ccccc1N1CCN(C(c2cccs2)C(C)NC(=O)C(=O)N2CCOCC2)CC1 (centres undefined) | 25.6 | – | 29.1 µM [rising, single point] |

| SMILES | cell number change [%] | AC50 [1] | AC50 [2] |
| --- | --- | --- | --- |
| Cc1cc(C)cc(N(C(C)C(=O)NCc2ccc3c(c2)OCO3)S(C)(=O)=O)c1 (centres undefined) | -60.8 | – | – |
| O=C(N/N=C/c1cccc2ccccc12)c1cc(C2CC2)[nH]n1 | -17.7 | – | 29.1 µM [falling, single point] |
| O=C(CN1CCN(Cc2ccccc2Cl)C1=O)NCC1CCCO1 (centres undefined) | -14.7 | – | 0.116 µM [falling, full curve, poor fit] |
| O=C(Oc1cccc(F)c1)c1ccc2c(=O)n3c(nc2c1)CCC3 | – | – | 2.06 µM [falling, single point] |
| CCN(CC)C(=O)CSc1nnc(-c2ccccn2)n1Cc1ccccc1 | 14.4 | – | 0.164 µM [rising, partial curve, poor fit] |
| Cc1cc(/N=C/C=C2\N(C)c3ccccc3C2(C)C)n(CCC#N)n1 | -9.02 | – | 1.84 µM [rising, partial curve, poor fit] |
| CCCCCCCOc1ccc(OC(=O)c2ccncc2)cc1 | -72.4 | 29.1 µM [falling, single point] | – |
| CCc1ccc(NC(=O)CCCN2C(=S)NC(C)(C)CC2C)cc1 (centres undefined) | 126 | 29.1 µM [rising, single point] | – |
| CCCCCCc1ccc(N2C[C@H](C)[C@@H](CC(=O)NCc3ccccc3)C2=O)cc1 | -7.77 | – | 18.4 µM [falling, single point] |
| O=C(CCCn1c(SCC(=O)c2ccc(F)cc2)nc2ccccc2c1=O)NCc1ccco1 | 1.91 | – | 0.411 µM [rising, full curve] |
| COc1ccccc1CNC(=O)C1CCN(c2nc3ccccc3o2)CC1 | -5.57 | – | 2.31 µM [rising, full curve] |
| COC(=O)Cn1c(O)c(N=NC(=O)CNC(=O)c2ccc3c(c2)OCCO3)c2ccccc21 | -22.6 | – | 5.17 µM [falling, partial curve, poor fit] |
| CC(C)C(c1nnnn1C(C)(C)C)N1CCOCC1 (centres undefined) | -17.1 | – | 5.8 µM [falling, full curve, poor fit] |
| Cc1ccccc1NC(=O)N1CCC(NC(=O)C2CCCCC2)CC1 | 23.9 | – | – |
| CCOc1cc(S(=O)(=O)N(CC)CC)c(OCC)cc1-n1cnnn1 | -11.2 | – | 18.4 µM [falling, single point] |
| O=C1CCC(=O)N1CNc1ccc(Oc2ccccc2)cc1 | – | 1.3 µM [falling, full curve, poor fit] | – |
| Cc1nnc(SCC(=O)Nc2nsc(-c3ccc(C(C)(C)C)cc3)n2)s1 | 62.7 | 10.3 µM [rising, partial curve] | 2.59 µM [rising, full curve, poor fit] |
| COc1ccccc1/C=N\Nc1cc(C)nc(-n2nc(C)cc2C)n1 | 46.4 | 29.1 µM [rising, single point] | 14.6 µM [falling, partial curve, poor fit] |
| Cc1ccc(C)c(Cc2c(C)nc3c(C(=O)NCc4ccc5c(c4)OCO5)cnn3c2C)c1 | – | 0.13 µM [rising, full curve, poor fit] | 0.231 µM [rising, full curve] |

An excerpt from above in order of length of the SMILES, descending.

| SMILES | cell number change [%] | AC50 [1] | AC50 [2] |
| --- | --- | --- | --- |
| CCCCCCc1ccc(N2C[C@H](C)[C@@H](CC(=O)NCc3ccccc3)C2=O)cc1 | -7.77 | – | 18.4 µM [falling, single point] |
| CCc1ccc(NC(=O)CCCN2C(=S)NC(C)(C)CC2C)cc1 (centres undefined) | 126 | 29.1 µM [rising, single point] | – |
| CCCCCCCOc1ccc(OC(=O)c2ccncc2)cc1 | -72.4 | 29.1 µM [falling, single point] | – |
